Paper PMC10163288
The other results are listed elsewhere or left out.

B1: il2ra_site2_3nfp_normal_mot_HHH_b1_03376_000000004_0001_41_55_H_._4975baa4e6927a9e2efcc4d468b24295_0001_1_af2_0001_0000300016_0000001_0_af2pred_0001_af2pred (protein)
chain: DIKQILRRALEENPDNEALFEAFALLIELLRRGVPPEEVERIVVEFLKELGDPEAEEVARELEET
B2: il2ra_site2_2erj_sap_21_mot_HHH_b1_08185_000000106_0001_41_55_H_._HHH_b1_05357_0001_0000100003_0000001_0_0001 (protein)
chain: DESIELTLEMLLEGDPLARRFLELTLHSVLGNPEEVEKILEELEELVENGDPEKAVELFKEALSR
B3: il2ra_site1_1z92_sap_13_mot_8e74d2c0662b2664e0165ba77bf01796_0001_af2_000000260_0001_19_33_H_._HHH_b1_04306_af2_0001_0000200009_0000001_0_0001_af2pred_0001_af2p … (protein)
chain: SSSSNKHEEILKSALKRIERAVEDGDPEKAEELIKFAEIAAKKFNDEEVEERLRELREEISSSSS
B4: il2ra_site2_3nfp_sap_27_mot_HHH_b1_07764_000000013_0001_24_39_H_._e8837ef3cdfbf3e926567bf0d89cea13_0001_0001_0000100012_0000001_0_0001 (protein)
chain: SSSSEEELKELEEEIRRLLEEGNLDEAAKLIEELLKLALELNDEEAIKVVLELYKILKERASSSS
B5: il2ra_site1_2b5i_normal_mot_HHH_b2_04910_000000118_0001_1_19_H_._HHH_b1_07294_af2_0001_0000100005_0000001_0_af2pred_0001_af2pred_1 (protein)
chain: SSSSSSSEAWELLQQANEAFRRGDDEEAEELLKEALKVAEEEGNKALLRSIRKALEQISSSSSSS
B6: il2ra_site1_2b5i_sap_9_mot_HHH_b1_00673_af2_000000168_0001_3_18_H_._HHH_b1_01635_0001_0000200006_0000001_0_0001_af2pred_dldesign_0_af2pred (protein)
chain: SSSSDEAILARAEELFAESSSLDEEAVRERLAELRALAEQAEDPTLRRYIERRVRMLERALSSSS
B7: il2ra_site2_3nfp_normal_mot_HHH_b1_01086_000000225_0001_20_36_H_._HHH_b1_01202_0001_0000300006_0000001_0_af2pred_0001_af2pred_swapped (protein)
chain: SSSSDHERFALRAALLEIEVAIEAGDEKKVEKLIERLEILIKRLNDEEMEELLRKLKEELSSSSS
B8: il2ra_site1_1z92_normal_mot_0a69b5c9b02373fb877a90f2b4b0d8e1_0001_1_af2_000000257_0001_17_32_H_._5511cb2176c827d1feb3066af2f534d5_0001_af2_0001_0000200009_00000 … (protein)
chain: PEELAEEARRLLENGNPEEAEKVLEKLAKESGSEEAFKRDLELAERWLGDPRRALLALIVALARD
B9: il2ra_site2_3nfp_sap_23_mot_HHH_b1_02422_000000114_0001_42_59_H_._d2b7c2924102c02e5b5e195002b33380_0001_1_0001_0000400028_0000001_0_0001 (protein)
chain: SSSSDEEERLEELIKELERLREEGDRVEAAEVLMELSELALEVGDREAVRVVLRYFRELQSSSSS
B10: il2ra_site2_2erj_normal_mot_HHH_b1_03609_af2_000000077_0001_42_55_H_._HHH_b1_06737_af2_0001_0000700011_0000001_0 (protein)
chain: SSSSSDEEKEEIEELIEEAKKIEDPEEAIEVLRRAAELAFELNDFELFSEIAELLRELAGSSSSS
B11: il2ra_site2_3nfp_normal_mot_HHH_b1_05627_af2_000000038_0001_43_56_H_._HHH_b2_07185_af2_0001_0000600046_0000001_1 (protein)
chain: SSSSSKAEEYLRIALELAKEAIEAGDPEAAKEILEAARLAAESLRDPEIQKEVEELLEELRSSSS
B12: il2ra_site2_3nfp_sap_23_mot_HHH_b2_05513_000000198_0001_20_37_H_._52c50354b804bec8c3157ba16786ada3_0001_0001_0000300006_0000001_0_0001 (protein)
chain: DAAEESIHAIRRKDEELSELLEEVLRLIKELKDPRLHLLLYEALLLIYRGNPEEAKKVLEEAAER
B13: il2ra_site1_2b5i_normal_mot_HHH_b1_04974_000000136_0001_1_18_H_._HHH_b1_00972_af2_0001_0000700037_0000001_0_af2pred_dldesign_0_af2pred (protein)
chain: SSSSSEVEDEADRLAREAARLRKEGKREEARKLLEKALELAKKANDEKLVAEIELLLSKLKSSSS
B14: il2ra_site2_2erj_sap_17_mot_cf89365494dbba80ae51c8475d1ce666_0001_af2_000000081_0001_35_48_H_._HHH_b2_08186_0001_0000400039_0000001_0_0001 (protein)
chain: SSSSSSSLLEEALEEIERLLEEGNSEEALRLAYKVAAELLSKDLELAREFFELAQELASSSSSSS
B15: il2ra_site2_2erj_normal_mot_HHH_b2_06080_000000063_0001_42_56_H_._HHH_b2_01714_0001_0001500014_0000001_0_af2pred_0001_1_af2pred_swapped (protein)
chain: SSSSDLEEVLRRLIEALSEGDEELIEELFELVEELAKKVPDRELRSEAERLLAFARSLLKKSSSS
B16: il2ra_site1_3nfp_sap_19_mot_119b7766384adbe86006a62bce89dba1_0001_af2_000000092_0001_18_32_H_._3633a07a64a68e62d76074d72b379c70_0001_1_af2_0001_0000100004_00000 … (protein)
chain: SSSSSAFEFLEREAKKAFERGDRRLLRLLLELIEKLLERMGNPKAEEVLEYIEELLRRLESSSSS
B17: il2ra_site1_2b5i_normal_mot_HHH_b1_01949_af2_000000041_0001_1_19_H_._HHH_b1_05336_af2_0001_0000200009_0000001_0_af2pred_0001_af2pred (protein)
chain: SSSSDEEERVFELFREASELFRNGNPEEARKVLEEALELARETGDPVAAKDLELFLELANSSSSS
B18: il2ra_site1_3nfp_normal_mot_HHH_b1_05523_000000027_0001_1_19_H_._HHH_b1_07881_af2_0001_0000800028_0000001_0_af2pred_0001_af2pred_1 (protein)
chain: SSSSSEELERVKELLEEALRLFKNGNPEEAKEVLEEALHLARENGSEHLRRFIEVALKLASSSSS

target: il2ra, P01589; assay: yeast display titration

Apparent Kd, inactive:
B1 no binding seen
B2 no binding seen
B3 no binding seen
B4 no binding seen
B5 no binding seen
B6 no binding seen
B7 no binding seen
B8 no binding seen
B9 no binding seen
B10 no binding seen
B11 no binding seen
B12 no binding seen
B13 no binding seen
B14 no binding seen
B15 no binding seen
B16 no binding seen
B17 no binding seen
B18 no binding seen
